Data on one molecule can be found in publication PMC7948425.

These are yes or no findings as the source states them, for the method shown. Binding seen in cells or lysates may run through a third protein. These calls come from enrichment with a bait or labelling near it, and not all partners need be listed. No binding means not detected with the bait. Tags and fused reporters may be left off the sequences shown.

The assay concerns the target T1, FLAG-streptavidin-binding peptide (FSBP) dual epitope-tagged USP13, from the gene-edited endogenous allele (human (endogenous in HCT116)), Q92995.
T1 chain: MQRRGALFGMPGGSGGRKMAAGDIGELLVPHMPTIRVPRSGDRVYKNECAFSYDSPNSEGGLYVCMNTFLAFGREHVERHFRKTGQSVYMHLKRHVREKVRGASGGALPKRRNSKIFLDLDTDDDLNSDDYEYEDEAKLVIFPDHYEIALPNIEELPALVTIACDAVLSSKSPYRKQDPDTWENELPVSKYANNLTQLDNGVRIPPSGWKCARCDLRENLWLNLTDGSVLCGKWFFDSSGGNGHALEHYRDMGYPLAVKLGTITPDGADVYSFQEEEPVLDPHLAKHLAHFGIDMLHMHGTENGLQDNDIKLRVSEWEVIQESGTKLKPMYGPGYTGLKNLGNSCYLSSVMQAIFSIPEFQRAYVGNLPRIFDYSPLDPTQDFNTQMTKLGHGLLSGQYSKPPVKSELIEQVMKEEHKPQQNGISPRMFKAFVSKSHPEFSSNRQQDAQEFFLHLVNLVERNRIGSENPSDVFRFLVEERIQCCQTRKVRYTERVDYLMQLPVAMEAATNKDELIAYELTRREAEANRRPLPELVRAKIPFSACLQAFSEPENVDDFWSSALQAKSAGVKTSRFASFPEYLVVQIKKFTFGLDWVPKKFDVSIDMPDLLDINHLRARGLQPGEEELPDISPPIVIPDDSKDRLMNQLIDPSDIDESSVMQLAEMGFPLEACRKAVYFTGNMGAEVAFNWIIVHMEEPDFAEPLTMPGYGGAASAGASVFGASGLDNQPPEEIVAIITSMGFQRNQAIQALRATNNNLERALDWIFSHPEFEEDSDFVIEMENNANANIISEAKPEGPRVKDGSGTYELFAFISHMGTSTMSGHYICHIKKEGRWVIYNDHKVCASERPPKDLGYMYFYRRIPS
Description: affinity purification with mass spectrometry; dual-affinity purification (FLAG M2 beads, FLAG peptide elution, then streptavidin resin, biotin elution; TBS 150 mM NaCl) of FSBP-USP13 from 60 mg HCT116 nuclear extract, parental cells as control, GeLC-MS/MS. The conditions noted are these: remark: other sources report otherwise.

B1: GP78, Q9UKV5 1-643 (protein)
chain: MPLLFLERFPWPSLRTYTGLSGLALLGTIISAYRALSQPEAGPGEPDQLTASLQPEPPAPARPSAGGPRARDVAQYLLSDSLFVWVLVNTACCVLMLVAKLIQCIVFGPLRVSERQHLKDKFWNFIFYKFIFIFGVLNVQTVEEVVMWCLWFAGLVFLHLMVQLCKDRFEYLSFSPTTPMSSHGRVLSLLVAMLLSCCGLAAVCSITGYTHGMHTLAFMAAESLLVTVRTAHVILRYVIHLWDLNHEGTWEGKGTYVYYTDFVMELTLLSLDLMHHIHMLLFGNIWLSMASLVIFMQLRYLFHEVQRRIRRHKNYLRVVGNMEARFAVATPEELAVNNDDCAICWDSMQAARKLPCGHLFHNSCLRSWLEQDTSCPTCRMSLNIADNNRVREEHQGENLDENLVPVAAAEGRPRLNQHNHFFHFDGSRIASWLPSFSVEVMHTTNILGITQASNSQLNAMAHQIQEMFPQVPYHLVLQDLQLTRSVEITTDNILEGRIQVPFPTQRSDSIRPALNSPVERPSSDQEEGETSAQTERVPLDLSPRLEETLDFGEVEVEPSEVEDFEARGSRFSKSADERQRMLVQRKDELLQQARKRFLNKSSEDDAASESFLPSEGASSDPVTLRRRMLAAAAERRLQKQQTS
With B1, the binding result was “no binding”.
